Some entries share one result that the patent states for a list of compounds.
What was measured:
Test in all cases: MIC, micro-broth dilution method
Format in all cases: cell-based
[1] = tested on: Methicillin-resistant Staphylococcus aureus ATCC33591
Procedure: (§1) The minimum inhibitory concentration (MIC) of pleuromutilin cinnamate easters and their starting materials was tested by a micro-broth dilution method, with retamoline, vornimulin and tiamulin as positive controls.
(§2) The experimental strains included Gram-positive bacteria: Methicillin-sensitive Staphylococcus epidermidis ATCC12228, Staphylococcus aureus ATCC29213 and ATCC25923, and Methicillin-resistant Staphylococcus aureus ATCC33591; Gram-negative bacteria: Acinetobacter baumannii ATCC19606 and E. coli Bacillus ATCC25922 (the strains used were from the American type culture collection (ATCC)).

[2] = tested on: Methicillin-sensitive Staphylococcus epidermidis ATCC12228
Procedure: as §1, §2

[3] = tested on: Staphylococcus aureus ATCC25923; settings: Staphylococcus aureus ATCC25293 as printed in text
Procedure: as §1, §2

[4] = tested on: Staphylococcus aureus ATCC29213
Procedure: as §1, §2

SMILES | inhibition (in words) [1] | inhibition (in words) [2] | inhibition (in words) [3] | inhibition (in words) [4]
C=C[C@]1(C)C[C@@H](OC(=O)COC(=O)/C=C/c2ccc3ccccc3c2)[C@]2(C)[C@H](C)CC[C@]3(CCC(=O)[C@H]32)[C@@H](C)[C@@H]1O [Compound 18, (E)-2-(((3aR,4R,5R,7S,8S,9R,9aS,12R)-8-hydroxy-4,7,9,12-tetramethyl-3-oxo-7-vinyldecahydro-4,9a-propanocyclopenta[8]annulen-5-yl)oxy)-2-oxoethyl 3-(naphthalen-2-yl)acrylate] | all had inhibitory effects | can inhibit | all had inhibitory effects | all had inhibitory effects
C=C[C@]1(C)C[C@@H](OC(=O)COC(=O)/C=C/c2ccc(C(F)(F)F)cc2F)[C@]2(C)[C@H](C)CC[C@]3(CCC(=O)[C@H]32)[C@@H](C)[C@@H]1O [Compound 19, (E)-2-(((3aR,4R,5R,8S,9R,12R)-8-hydroxy-4,7,9,12-tetramethyl-3-oxo-7-vinyldecahydro-4,9a-propanocyclopenta[8]annulen-5-yl)oxy)-2-oxoethyl 3-(2-fluoro-4-(trifluoromethyl)phenyl)acrylate] | all had inhibitory effects | can inhibit | all had inhibitory effects | all had inhibitory effects
C=C[C@]1(C)C[C@@H](OC(=O)COC(=O)/C=C/c2ccc(F)c(Cl)c2)[C@]2(C)[C@H](C)CC[C@]3(CCC(=O)[C@H]32)[C@@H](C)[C@@H]1O [Compound 20, (E)-2-(((3aR,4R,5R,8S,9R,12R)-8-hydroxy-4,7,9,12-tetramethyl-3-oxo-7-vinyldecahydro-4,9a-propanocyclopenta[8]annulen-5-yl)oxy)-2-oxoethyl 3-(3-chloro-4-fluorophenyl)acrylate] | all had inhibitory effects | can inhibit | all had inhibitory effects | all had inhibitory effects
C=C[C@]1(C)C[C@@H](OC(=O)COC(=O)/C=C/c2ccccc2C(F)(F)F)[C@]2(C)[C@H](C)CC[C@]3(CCC(=O)[C@H]32)[C@@H](C)[C@@H]1O [Compound 21] | all had inhibitory effects | can inhibit | all had inhibitory effects | all had inhibitory effects
